# Experimental data reported in the supplement of paper PMC12067093, “Discovery and optimisation of a covalent ligand for TRIM25 and its application to targeted protein ubiquitination” (Chemical Science, 2025).
# By UniProt entry, the sequences of proteins in these tests, tags left out. Where a name states a change or a piece, a line headed by the entry shows the natural chain unless it says otherwise.
# UniProt P52888, whole entry, looked up: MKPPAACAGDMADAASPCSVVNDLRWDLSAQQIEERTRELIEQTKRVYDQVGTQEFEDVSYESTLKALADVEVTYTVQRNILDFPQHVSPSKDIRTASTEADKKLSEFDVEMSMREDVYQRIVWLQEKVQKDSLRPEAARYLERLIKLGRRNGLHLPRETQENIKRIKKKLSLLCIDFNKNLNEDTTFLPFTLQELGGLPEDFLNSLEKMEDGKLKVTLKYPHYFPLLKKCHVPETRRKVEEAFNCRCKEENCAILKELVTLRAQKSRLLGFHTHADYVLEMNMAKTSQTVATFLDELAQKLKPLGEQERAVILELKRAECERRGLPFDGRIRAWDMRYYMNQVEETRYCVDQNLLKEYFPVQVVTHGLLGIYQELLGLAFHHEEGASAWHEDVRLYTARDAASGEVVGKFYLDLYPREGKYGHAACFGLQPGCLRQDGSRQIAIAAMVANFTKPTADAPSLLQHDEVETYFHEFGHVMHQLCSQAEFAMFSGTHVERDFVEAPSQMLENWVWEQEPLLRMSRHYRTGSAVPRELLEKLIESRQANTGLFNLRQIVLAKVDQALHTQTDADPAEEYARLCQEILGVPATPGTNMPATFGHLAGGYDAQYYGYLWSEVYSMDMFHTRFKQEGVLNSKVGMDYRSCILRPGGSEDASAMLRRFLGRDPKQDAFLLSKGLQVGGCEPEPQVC
# UniProt Q86W42: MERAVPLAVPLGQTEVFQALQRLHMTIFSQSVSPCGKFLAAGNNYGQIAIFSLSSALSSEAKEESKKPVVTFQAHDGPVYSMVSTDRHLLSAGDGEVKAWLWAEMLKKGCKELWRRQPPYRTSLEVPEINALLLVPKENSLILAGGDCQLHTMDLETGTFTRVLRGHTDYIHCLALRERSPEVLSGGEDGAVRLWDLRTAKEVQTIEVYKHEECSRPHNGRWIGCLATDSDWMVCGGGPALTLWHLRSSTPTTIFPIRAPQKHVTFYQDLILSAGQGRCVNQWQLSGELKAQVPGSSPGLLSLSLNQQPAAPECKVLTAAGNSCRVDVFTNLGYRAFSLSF
# UniProt Q99595: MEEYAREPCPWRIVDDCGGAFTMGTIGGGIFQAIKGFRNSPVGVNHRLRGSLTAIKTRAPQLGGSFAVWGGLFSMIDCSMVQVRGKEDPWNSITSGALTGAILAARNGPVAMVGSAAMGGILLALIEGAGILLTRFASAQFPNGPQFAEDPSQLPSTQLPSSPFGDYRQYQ
# UniProt P07996: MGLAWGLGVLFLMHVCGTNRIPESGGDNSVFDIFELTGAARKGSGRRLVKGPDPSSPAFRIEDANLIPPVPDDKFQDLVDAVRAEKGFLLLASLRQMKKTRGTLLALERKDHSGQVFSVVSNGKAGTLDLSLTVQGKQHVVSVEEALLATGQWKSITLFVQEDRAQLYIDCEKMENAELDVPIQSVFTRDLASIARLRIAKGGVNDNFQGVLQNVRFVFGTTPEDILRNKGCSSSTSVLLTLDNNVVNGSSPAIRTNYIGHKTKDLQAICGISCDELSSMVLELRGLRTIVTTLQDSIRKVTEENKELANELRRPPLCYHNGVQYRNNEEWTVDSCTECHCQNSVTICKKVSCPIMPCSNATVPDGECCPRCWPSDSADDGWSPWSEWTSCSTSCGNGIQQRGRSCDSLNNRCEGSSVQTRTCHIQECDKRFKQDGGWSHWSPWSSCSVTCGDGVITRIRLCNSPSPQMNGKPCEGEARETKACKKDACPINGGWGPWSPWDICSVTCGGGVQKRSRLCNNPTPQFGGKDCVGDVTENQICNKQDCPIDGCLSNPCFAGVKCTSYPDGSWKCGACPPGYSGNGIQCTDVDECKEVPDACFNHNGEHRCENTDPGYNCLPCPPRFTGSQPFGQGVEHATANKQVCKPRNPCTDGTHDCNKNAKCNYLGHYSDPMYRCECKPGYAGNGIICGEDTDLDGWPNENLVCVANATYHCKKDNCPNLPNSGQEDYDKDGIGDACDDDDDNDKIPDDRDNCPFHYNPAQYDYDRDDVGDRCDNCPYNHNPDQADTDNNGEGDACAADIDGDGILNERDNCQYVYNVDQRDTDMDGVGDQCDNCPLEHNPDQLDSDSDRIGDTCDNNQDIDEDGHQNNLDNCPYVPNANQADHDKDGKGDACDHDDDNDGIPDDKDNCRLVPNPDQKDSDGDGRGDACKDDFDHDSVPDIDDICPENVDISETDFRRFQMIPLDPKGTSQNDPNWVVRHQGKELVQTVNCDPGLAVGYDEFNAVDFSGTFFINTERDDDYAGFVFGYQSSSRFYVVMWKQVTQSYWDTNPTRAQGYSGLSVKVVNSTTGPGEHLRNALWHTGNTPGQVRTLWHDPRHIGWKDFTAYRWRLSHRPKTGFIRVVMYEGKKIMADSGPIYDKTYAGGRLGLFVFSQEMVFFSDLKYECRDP
# UniProt Q96FV9: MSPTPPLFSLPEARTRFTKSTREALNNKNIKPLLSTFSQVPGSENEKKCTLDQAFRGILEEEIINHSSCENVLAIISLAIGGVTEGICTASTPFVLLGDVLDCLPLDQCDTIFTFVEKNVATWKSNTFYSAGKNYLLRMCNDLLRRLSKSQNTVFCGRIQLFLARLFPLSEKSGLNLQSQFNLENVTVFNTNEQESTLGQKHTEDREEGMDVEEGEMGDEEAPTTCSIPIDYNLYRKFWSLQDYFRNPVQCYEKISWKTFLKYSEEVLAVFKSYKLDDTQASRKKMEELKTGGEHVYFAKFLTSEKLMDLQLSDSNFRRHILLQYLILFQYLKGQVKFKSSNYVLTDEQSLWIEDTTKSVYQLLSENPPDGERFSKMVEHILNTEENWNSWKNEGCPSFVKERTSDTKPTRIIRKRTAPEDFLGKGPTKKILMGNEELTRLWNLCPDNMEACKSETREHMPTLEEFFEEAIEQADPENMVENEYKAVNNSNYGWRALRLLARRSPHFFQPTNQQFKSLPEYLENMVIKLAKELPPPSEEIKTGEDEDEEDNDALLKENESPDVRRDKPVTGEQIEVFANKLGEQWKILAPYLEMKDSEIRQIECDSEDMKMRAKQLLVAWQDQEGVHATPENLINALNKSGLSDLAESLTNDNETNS
# UniProt Q9BSF4: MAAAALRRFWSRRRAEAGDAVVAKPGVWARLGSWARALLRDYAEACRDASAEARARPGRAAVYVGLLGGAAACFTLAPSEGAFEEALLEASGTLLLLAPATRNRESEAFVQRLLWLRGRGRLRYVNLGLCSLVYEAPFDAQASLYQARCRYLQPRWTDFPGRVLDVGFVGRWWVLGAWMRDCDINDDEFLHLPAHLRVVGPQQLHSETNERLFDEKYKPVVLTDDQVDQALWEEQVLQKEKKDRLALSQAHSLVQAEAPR
# UniProt P07204, whole entry, looked up: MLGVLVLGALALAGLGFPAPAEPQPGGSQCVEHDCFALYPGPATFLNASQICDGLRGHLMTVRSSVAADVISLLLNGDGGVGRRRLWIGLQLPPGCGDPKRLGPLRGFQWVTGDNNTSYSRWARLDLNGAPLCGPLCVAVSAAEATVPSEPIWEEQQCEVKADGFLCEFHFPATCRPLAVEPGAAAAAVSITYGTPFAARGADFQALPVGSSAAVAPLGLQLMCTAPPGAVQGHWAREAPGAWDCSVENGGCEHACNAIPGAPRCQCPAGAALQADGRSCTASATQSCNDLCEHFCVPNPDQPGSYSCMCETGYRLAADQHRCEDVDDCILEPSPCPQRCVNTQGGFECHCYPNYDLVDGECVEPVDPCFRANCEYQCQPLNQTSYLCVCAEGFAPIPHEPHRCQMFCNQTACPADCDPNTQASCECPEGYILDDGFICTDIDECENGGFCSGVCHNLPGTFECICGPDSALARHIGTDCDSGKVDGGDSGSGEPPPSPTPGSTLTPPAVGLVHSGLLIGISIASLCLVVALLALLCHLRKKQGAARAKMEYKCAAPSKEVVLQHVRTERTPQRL
# UniProt Q8IWB9: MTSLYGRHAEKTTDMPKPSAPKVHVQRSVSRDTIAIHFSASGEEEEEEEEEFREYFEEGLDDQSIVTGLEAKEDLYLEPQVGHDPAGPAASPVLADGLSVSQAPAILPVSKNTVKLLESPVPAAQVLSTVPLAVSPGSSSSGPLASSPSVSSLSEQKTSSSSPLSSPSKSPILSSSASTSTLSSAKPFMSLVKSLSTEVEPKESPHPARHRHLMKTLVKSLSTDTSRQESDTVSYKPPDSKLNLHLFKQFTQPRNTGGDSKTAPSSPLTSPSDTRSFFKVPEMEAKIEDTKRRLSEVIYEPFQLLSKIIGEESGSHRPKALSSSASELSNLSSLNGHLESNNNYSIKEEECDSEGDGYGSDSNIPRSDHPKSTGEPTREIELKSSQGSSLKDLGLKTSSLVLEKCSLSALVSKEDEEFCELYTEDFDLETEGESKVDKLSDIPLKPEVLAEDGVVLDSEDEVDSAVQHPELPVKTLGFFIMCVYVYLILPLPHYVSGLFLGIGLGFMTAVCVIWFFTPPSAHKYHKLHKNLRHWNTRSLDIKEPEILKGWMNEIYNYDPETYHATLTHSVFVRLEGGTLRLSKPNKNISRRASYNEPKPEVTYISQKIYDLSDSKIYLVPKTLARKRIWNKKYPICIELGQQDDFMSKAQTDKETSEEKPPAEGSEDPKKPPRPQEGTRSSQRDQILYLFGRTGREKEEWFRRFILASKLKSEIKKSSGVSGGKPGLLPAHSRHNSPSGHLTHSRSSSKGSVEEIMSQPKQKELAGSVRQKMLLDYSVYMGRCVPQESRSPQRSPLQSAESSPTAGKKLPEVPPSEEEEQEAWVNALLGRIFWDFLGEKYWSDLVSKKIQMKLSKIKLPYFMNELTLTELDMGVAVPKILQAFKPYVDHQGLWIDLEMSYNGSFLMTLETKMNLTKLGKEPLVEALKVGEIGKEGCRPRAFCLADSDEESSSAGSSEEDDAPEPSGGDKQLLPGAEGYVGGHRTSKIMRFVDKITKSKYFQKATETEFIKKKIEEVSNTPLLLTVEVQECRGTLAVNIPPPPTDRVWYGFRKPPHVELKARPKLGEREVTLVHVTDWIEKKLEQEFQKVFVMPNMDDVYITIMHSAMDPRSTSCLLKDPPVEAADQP
# UniProt O43422: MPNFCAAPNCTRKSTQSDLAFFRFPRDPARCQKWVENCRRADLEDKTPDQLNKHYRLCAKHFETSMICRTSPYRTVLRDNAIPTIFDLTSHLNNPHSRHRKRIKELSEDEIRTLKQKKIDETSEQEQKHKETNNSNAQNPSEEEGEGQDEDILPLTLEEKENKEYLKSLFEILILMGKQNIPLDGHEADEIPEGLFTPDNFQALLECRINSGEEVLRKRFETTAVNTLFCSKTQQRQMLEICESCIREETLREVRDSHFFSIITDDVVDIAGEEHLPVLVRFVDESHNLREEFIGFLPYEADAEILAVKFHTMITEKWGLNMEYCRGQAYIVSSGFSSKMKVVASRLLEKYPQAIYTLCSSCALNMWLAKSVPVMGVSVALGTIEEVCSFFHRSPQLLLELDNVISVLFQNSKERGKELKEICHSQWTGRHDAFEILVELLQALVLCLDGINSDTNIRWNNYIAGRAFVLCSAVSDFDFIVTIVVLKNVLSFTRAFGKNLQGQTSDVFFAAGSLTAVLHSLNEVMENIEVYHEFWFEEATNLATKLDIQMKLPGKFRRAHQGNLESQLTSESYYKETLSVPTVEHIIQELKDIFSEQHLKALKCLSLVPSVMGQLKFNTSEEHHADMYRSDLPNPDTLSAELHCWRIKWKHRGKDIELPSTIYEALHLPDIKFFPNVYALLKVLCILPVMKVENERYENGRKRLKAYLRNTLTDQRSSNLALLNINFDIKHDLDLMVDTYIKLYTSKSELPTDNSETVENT
# UniProt O43615: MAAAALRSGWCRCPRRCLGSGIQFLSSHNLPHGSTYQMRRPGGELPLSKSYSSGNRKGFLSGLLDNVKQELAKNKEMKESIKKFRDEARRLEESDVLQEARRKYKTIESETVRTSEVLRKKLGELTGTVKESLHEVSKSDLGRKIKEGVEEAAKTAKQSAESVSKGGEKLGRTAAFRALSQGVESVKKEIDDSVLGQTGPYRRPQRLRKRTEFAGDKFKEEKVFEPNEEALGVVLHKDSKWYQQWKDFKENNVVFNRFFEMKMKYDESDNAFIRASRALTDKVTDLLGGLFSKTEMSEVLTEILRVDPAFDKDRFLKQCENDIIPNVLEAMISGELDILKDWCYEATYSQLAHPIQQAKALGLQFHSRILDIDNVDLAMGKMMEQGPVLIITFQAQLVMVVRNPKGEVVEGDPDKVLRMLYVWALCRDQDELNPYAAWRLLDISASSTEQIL
# UniProt Q5JUR7: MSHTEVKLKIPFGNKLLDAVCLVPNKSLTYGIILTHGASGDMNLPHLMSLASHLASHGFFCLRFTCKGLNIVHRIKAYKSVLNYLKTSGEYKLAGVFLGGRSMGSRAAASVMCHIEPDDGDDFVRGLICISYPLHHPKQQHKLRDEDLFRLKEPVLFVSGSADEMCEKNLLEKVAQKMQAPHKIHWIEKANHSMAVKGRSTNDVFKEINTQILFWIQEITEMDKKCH
# The list shows a part of the results.
# Compound: CC1Cc2ccccc2N1C(=O)C1CCCN(C1)C(=O)CCl (mixture of isomers) [TRIM25 ligand 11 (diastereomer mixture)]
# Assay: probe-labelled cysteine peptide fold change vs DMSO (competition) (log2 fold change); higher = less target engagement (more negative = stronger competition)
# Conditions: 10 µM; THP-1; incubation time: 4 h
# 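Also: competitive chemoproteomic profiling in live THP-1 cells with an iodoacetamide desthiobiotin (IA-DTB) probe, comparing probe-labelled peptide intensities in compound-treated cells against DMSO-treated controls.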
row,Target,probe-labelled cysteine peptide fold change
1,TCP1_P17987_397_SLHDALCVVKR (UniProt P17987),-0.234
2,TKT_P29401_206_CEAFGWHAIIVDGHSVEELCK (UniProt P29401),0.0306
3,TK1_P04183_156_LTAVCMECFR (UniProt P04183),-0.0458
4,TEPSIN_Q96N21_493_LVGAGAAAGESCPDAPR (UniProt Q96N21),0.112
5,TLN1_Q9Y490_1045_AQEACGPLEMDSALSVVQNLEK (UniProt Q9Y490),0.24
6,TCIRG1_Q13488_317_CLIAEAWCSVR (UniProt Q13488),0.0352
7,TCP1_P17987_296_ILATGANVILTTGGIDDMCLK (UniProt P17987),-0.0684
8,THOP1_P52888_434_YGHAACFGLQPGCLR (UniProt P52888),0.0959
9,THOP1_P52888_231_CHVPETR (UniProt P52888),0.0498
10,THOP1_P52888_253_EENCAILK (UniProt P52888),0.258
11,TEP1_Q99973_2000_ECSLQSLWLLSR (UniProt Q99973),-0.047
12,THOC6_Q86W42_214_HEECSRPHNGR (UniProt Q86W42),0.174
13,TES_Q9UGI8_164_CHELSPR (UniProt Q9UGI8),-0.056
14,TIMM17A_Q99595_17_IVDDCGGAFTMGTIGGGIFQAIK (UniProt Q99595),-0.05
15,THBS1_P07996_657_NPCTDGTHDCNK (UniProt P07996),0.474
16,TFB2M_Q9H5Q4_102_PSRPPHLLLECNPGPGILTQALLEAGAK (UniProt Q9H5Q4),-0.0999
17,THUMPD3_Q9BV44_391_PSWGLPIDAVQWDICNLPLR (UniProt Q9BV44),-0.143
18,TKT_P29401_133_QAFTDVATGSLGQGLGAACGMAYTGK (UniProt P29401),0.00614
19,THOP1_P52888_321_RAECER (UniProt P52888),-0.00042
20,THBS1_P07996_718_KDNCPNLPNSGQEDYDK (UniProt P07996),0.375

row,Target,probe-labelled cysteine peptide fold change
1,TCF25_Q9BQ70_540_EPATMSWLEENVHEVLQAVDAGDPAVEACENRR (UniProt Q9BQ70),-0.0482
2,TKFC_Q3LXA3_13+24_LVNSVAGCADDALAGLVACNPNLQLLQGHR (UniProt Q3LXA3),0.439
3,THOP1_P52888_427+434_YGHAACFGLQPGCLR (UniProt P52888),0.0761
4,TKT_P29401_417_MAAISESNINLCGSHCGVSIGEDGPSQMALEDLAMFR (UniProt P29401),0.00553
5,THOC1_Q96FV9_156_SQNTVFCGR (UniProt Q96FV9),-0.227
6,THOP1_P52888_175_LSLLCIDFNK (UniProt P52888),0.0227
7,TELO2_Q9Y4R8_568_TCVVGFAGLR (UniProt Q9Y4R8),0.0025
8,TEX264_Q9Y6I9_182_LEIYQEDQIHFMCPLAR (UniProt Q9Y6I9),0.0432
9,TICAM1_Q8IUC6_37_TPRPGCQGQDLLHAMVLLK (UniProt Q8IUC6),-0.121
10,TIMM29_Q9BSF4_130_YVNLGLCSLVYEAPFDAQASLYQAR (UniProt Q9BSF4),-0.179
11,THBD_P07204_256_EAPGAWDCSVENGGCEHACNAIPGAPR (UniProt P07204),0.0844
12,TKT_P29401_206_RCEAFGWHAIIVDGHSVEELCK (UniProt P29401),-0.1
13,THOC1_Q96FV9_604_QIECDSEDMK (UniProt Q96FV9),-0.0446
14,TEX2_Q8IWB9_1030_KIEEVSNTPLLLTVEVQECR (UniProt Q8IWB9),-0.0986
15,THAP12_O43422_230_RFETTAVNTLFCSK (UniProt O43422),0.0728
16,TIMM44_O43615_343_DWCYEATYSQLAHPIQQAK (UniProt O43615),0.0094
17,TEX30_Q5JUR7_129_GLICISYPLHHPK (UniProt Q5JUR7),-0.0992
18,THOC6_Q86W42_148_ENSLILAGGDCQLHTMDLETGTFTR (UniProt Q86W42),0.117
19,TIMELESS_Q9UNS1_96_LMVNLTQPALLCFGNLPK (UniProt Q9UNS1),0.287

# Same assay, conditions: 50 µM; THP-1; incubation time: 4 h
row,Target,probe-labelled cysteine peptide fold change
1,TCP1_P17987_397_SLHDALCVVKR (UniProt P17987),-0.219
2,TKT_P29401_206_CEAFGWHAIIVDGHSVEELCK (UniProt P29401),0.108
3,TK1_P04183_156_LTAVCMECFR (UniProt P04183),0.364
4,TEPSIN_Q96N21_493_LVGAGAAAGESCPDAPR (UniProt Q96N21),-0.193
5,TLN1_Q9Y490_1045_AQEACGPLEMDSALSVVQNLEK (UniProt Q9Y490),0.184
6,TCIRG1_Q13488_317_CLIAEAWCSVR (UniProt Q13488),0.0368
7,TCP1_P17987_296_ILATGANVILTTGGIDDMCLK (UniProt P17987),-0.0533
8,THOP1_P52888_434_YGHAACFGLQPGCLR (UniProt P52888),0.124
9,THOP1_P52888_231_CHVPETR (UniProt P52888),-0.0166
10,THOP1_P52888_253_EENCAILK (UniProt P52888),0.483
11,TEP1_Q99973_2000_ECSLQSLWLLSR (UniProt Q99973),0.0164
12,THOC6_Q86W42_214_HEECSRPHNGR (UniProt Q86W42),0.17
13,TES_Q9UGI8_164_CHELSPR (UniProt Q9UGI8),-0.146
14,TIMM17A_Q99595_17_IVDDCGGAFTMGTIGGGIFQAIK (UniProt Q99595),-0.064
15,THBS1_P07996_657_NPCTDGTHDCNK (UniProt P07996),0.144
16,TFB2M_Q9H5Q4_102_PSRPPHLLLECNPGPGILTQALLEAGAK (UniProt Q9H5Q4),0.0423
17,THUMPD3_Q9BV44_391_PSWGLPIDAVQWDICNLPLR (UniProt Q9BV44),-0.0868
18,TKT_P29401_133_QAFTDVATGSLGQGLGAACGMAYTGK (UniProt P29401),0.0307
19,THOP1_P52888_321_RAECER (UniProt P52888),0.0102
20,THBS1_P07996_718_KDNCPNLPNSGQEDYDK (UniProt P07996),0.118

row,Target,probe-labelled cysteine peptide fold change
1,TCF25_Q9BQ70_540_EPATMSWLEENVHEVLQAVDAGDPAVEACENRR (UniProt Q9BQ70),-0.103
2,TKFC_Q3LXA3_13+24_LVNSVAGCADDALAGLVACNPNLQLLQGHR (UniProt Q3LXA3),0.518
3,THOP1_P52888_427+434_YGHAACFGLQPGCLR (UniProt P52888),-0.0391
4,TKT_P29401_417_MAAISESNINLCGSHCGVSIGEDGPSQMALEDLAMFR (UniProt P29401),-0.379
5,THOC1_Q96FV9_156_SQNTVFCGR (UniProt Q96FV9),0.0635
6,THOP1_P52888_175_LSLLCIDFNK (UniProt P52888),0.00268
7,TELO2_Q9Y4R8_568_TCVVGFAGLR (UniProt Q9Y4R8),0.0967
8,TEX264_Q9Y6I9_182_LEIYQEDQIHFMCPLAR (UniProt Q9Y6I9),0.0482
9,TICAM1_Q8IUC6_37_TPRPGCQGQDLLHAMVLLK (UniProt Q8IUC6),-0.031
10,TIMM29_Q9BSF4_130_YVNLGLCSLVYEAPFDAQASLYQAR (UniProt Q9BSF4),0.148
11,THBD_P07204_256_EAPGAWDCSVENGGCEHACNAIPGAPR (UniProt P07204),-0.111
12,TKT_P29401_206_RCEAFGWHAIIVDGHSVEELCK (UniProt P29401),-0.026
13,THOC1_Q96FV9_604_QIECDSEDMK (UniProt Q96FV9),-0.0167
14,TEX2_Q8IWB9_1030_KIEEVSNTPLLLTVEVQECR (UniProt Q8IWB9),0.155
15,THAP12_O43422_230_RFETTAVNTLFCSK (UniProt O43422),-0.135
16,TIMM44_O43615_343_DWCYEATYSQLAHPIQQAK (UniProt O43615),0.188
17,TEX30_Q5JUR7_129_GLICISYPLHHPK (UniProt Q5JUR7),-0.0859
18,THOC6_Q86W42_148_ENSLILAGGDCQLHTMDLETGTFTR (UniProt Q86W42),-0.0106
19,TIMELESS_Q9UNS1_96_LMVNLTQPALLCFGNLPK (UniProt Q9UNS1),0.154
